Laboratory results reported in US20170059576.
Construct, isoform or probe ends are uncertain for at least one entry. For part of these data: Where cells or extracts were used, other partners may take part.

How the values were obtained:
Immunoglobulin E (IgE) = assay: filter binding; details: purified native protein, protein details: Abcam, single-stranded DNA
[1] = molecular target: c-Met (HGFR), endogenous on H1838 cells (Homo sapiens) (UniProt P08581); assay: pull-down; details: 5'-hexylamine coupled Sulfo-SBED (phenyl azide, biotin); protein on the cell surface; label: biotin; single-stranded DNA; variant of trCLN3

## GGGGCACGTTTATCCGTCCCTCCTAGTGGCGTGCCCC [ABAL-D17.4]
Immunoglobulin E (IgE); 5'-hexylamine coupled Sulfo-SBED (phenyl azide, biotin), affinity not altered vs unfunctionalized D17.4, high UV cross-linking, label: biotin, variant of D17.4
  binding result: binds

## GGGGCACGTTTATCCGTCCCTCCTAGTGGCGTGCCCC [D17.4]
Immunoglobulin E (IgE)
  binding result: binds

## TGGATGGTAGCTCGGTCGGGGTGGGTGGGTTGGCAAGTCT [ABAL-trCLN3]
[1]
  binding result: binds
